Source: publication PMC4235218

Columns and labels:
[1] = molecular target: T1, m2-peptide displayed on phage (m2-phage); assay: far-Western, overlay or dot blot; qualitative dot blot: phages (2x10^10/dot) or CD4 (1 μg/dot) on nitrocellulose, envelope protein 2.5-5 μg/ml overnight at 4°C in 5% skim milk/TBS, bound envelope detected with HIVIg or mAbs; both purified
T1 sequence (peptide): CDRRDLPDWAIRAC

[2] = molecular target: T1, m2-peptide displayed on phage (m2-phage); assay: far-Western, overlay or dot blot; semi-quantitative dot blot: equal amounts of phages in two fold serial dilutions on nitrocellulose, gp120 CDC451 followed by HIVIg or CG10, densitometry; both purified
[3] = molecular target: T2, 2A6 peptide displayed on phage (phage 2A6); assay: as above
T2 sequence (peptide): CDRRDLPQWAIREC

[4] = molecular target: T3, m1-peptide displayed on phage (m1-phage); assay: far-Western, overlay or dot blot; qualitative dot blot: phages (2x10^10/dot) or CD4 (1 μg/dot) on nitrocellulose, envelope protein 2.5-5 μg/ml overnight at 4°C in 5% skim milk/TBS, bound envelope detected with HIVIg or mAbs; both purified
T3 sequence (peptide): CDRRDLPQWAKREC

[5] = molecular target: T1, m2-peptide displayed on phage (m2-phage); assay: SPR; BIACORE T-200; p3-biotinylated phages (300 RU) on streptavidin-coated CM5 chips; 1 μM analyte (gp120 CDC451, CG10 or gp120 + CG10) for 2 min at 50 μl/min; 25°C, 20 mM sodium phosphate pH 7.0 (PBS); both purified
[6] = molecular target: T4, scrambled version of the m2-peptide displayed on phage; assay: as above
T4 sequence (peptide): CDLWRIRADRAPDC

[7] = molecular target: T5, m3-peptide displayed on phage (m3-phage); assay: as above
T5 sequence (peptide): CSRSDLPEWAVRTC

[8] = molecular target: T3, m1-peptide displayed on phage (m1-phage); assay: as above
[9] = molecular target: T3, m1-peptide displayed on phage (m1-phage); assay: ELISA; phages captured on wells by an anti-M13 mAb; gp120 CDC451, CD4 or pre-formed 1:1 gp120:CD4 complex added (5-10 μg/ml, 5% skim milk/TBS, 1 hr room temperature); gp120 detected with biotinylated 9G3, CD4 with biotinylated CG9; both purified
[10] = molecular target: HIV-1 BaL gp120, recombinant (HIV-1 (isolate BaL)); assay: ELISA; gp120 BaL (wild type or D368R) captured on wells by an immobilised antibody (b12, 1B6 or HIVIg); phages (2x10^10/well) or CD4 added; phages detected with anti-M13, CD4 with biotinylated CG9; both purified
[11] = molecular target: HIV-1 BaL gp120 D368R mutant (HIV-1 (isolate BaL)); assay: as above

## HIV-1 BaL gp120, recombinant
[1]
  binding: binds

## HIV-1 CDC451 gp120, monomeric recombinant
[2]
  binding: binds
[3]
  binding: binds
[4]
  binding: binds
[5]
  binding: binds
[6]
  binding: no binding (tested: 1 μM)
[7]
  binding: binds
[8]
  binding: binds
[9]
  binding: binds

## soluble recombinant CD4 protein (D1-D4 domains) (receptor)
[9]
  binding: no binding (tested: 5–10 μg/ml)

## CDRRDLPDWAIRAC [m2-peptide displayed on phage (m2-phage)]
[10]
  binding: binds
[11]
  binding: binds

Results are given in words; binding and its absence hold for the method and conditions named. For part of these data: Binding calls can cover weak binding; strength is not graded here.
